Experimental data taken from PubChem BioAssay AID330 (DTP/NCI, 2004).
The list does not hold the whole screen: it gathers tests that were run many times, whatever their T/C, doses with no T/C, and many T/C values between a quarter and a half above the control. Other doses and runs of a compound stand elsewhere. T/C gives the treated animals as a percentage of the vehicle group. Some doses have a count of surviving animals in place of a T/C: the source holds a T/C of zero for them, seemingly a mark for toxic or unscored doses. Some survivor counts are full or nearly so, which does not show that the dose was tolerated: survival well below the control is almost never listed, so the zero probably covers shortened survival too. Counts of survivors are from the toxicity check (mostly the fifth day) where no day follows; animals may have died later. Schedules are NCI's codes, read here as Q, the interval in days (D) or hours (H), X, the number of doses. For survival time, the PubChem record calls one and a half times the control and up active, and a quarter to a half above the control has no call in these data; cut-offs in other NCI protocols can differ. Some doses were run more than once; their values stand side by side, smallest first. Some T/C values are followed by the survivors on the day toxicity was checked, most often the fifth; without a count, all were alive then.

System: P388 leukemia ip, CD2F1 mice, survival T/C
Assay: NCI In Vivo Anticancer Drug Screen. Data for tumor model P388 Leukemia (intraperitoneal) in CD2F1 (CDF1) mice
Details: T/C endpoint: median survival time, higher T/C = longer survival
[1] = dose: 100.0 mg/kg/injection, schedule: Q01DX005 (ip), vehicle: saline with Tween-80
[2] = dose: 200.0 mg/kg/injection, schedule: Q01DX005 (ip), vehicle: saline with Tween-80
[3] = dose: 50.0 mg/kg/injection, schedule: Q04DX002 (ip), vehicle: saline with Tween-80
[4] = dose: 200.0 mg/kg/injection, schedule: Q01DX009 (ip), vehicle: saline
[5] = dose: 240.0 mg/kg/injection, schedule: Q01DX005 (ip), vehicle: saline with Tween-80
[6] = dose: 32.0 micrograms/kg/injection, schedule: Q01DX009 (ip), vehicle: saline

CCCCS(=O)(=O)CSC#N was tested, and the survivor count (dose: 50.0 mg/kg/injection, schedule: Q01DX005 (ip), vehicle: saline with Tween-80) was 0 of 5, the survivor count [1] was 0 of 5 and the survivor count [2] was 0 of 5.

With O=C1OC(=O)C2CCCC1C2 the survivor count (dose: 400.0 mg/kg/injection, schedule: Q01DX009 (ip), vehicle: Klucel (hydroxypropylcellulose) (HPC)) was 0 of 6.

With COC1/C=C\C=C(/C)C(=O)NC2=CC(=O)C(NCCCl)=C(CC(C)CC(OC)C(O)C(C)/C=C(/C)C1OC(N)=O)C2=O (stereo unspecified) the T/C (dose: 10.0 mg/kg/injection, schedule: Q04DX002 (ip), vehicle: saline with Tween-80) was 125 % of control, the T/C (dose: 25.0 mg/kg/injection, schedule: Q04DX002 (ip), vehicle: saline with Tween-80) was 134 and 138 % of control and the T/C (dose: 40.0 mg/kg/injection, schedule: Q04DX002 (ip), vehicle: saline with Tween-80) was 126 % of control [5 of 6 alive]. For the same compound, the T/C [3] was 147 % of control, the survivor count [3] was 6 of 6 and the survivor count (dose: 80.0 mg/kg/injection, schedule: Q04DX002 (ip), vehicle: saline with Tween-80) was 0 of 6. The survivor count (dose: 100.0 mg/kg/injection, schedule: Q04DX002 (ip), vehicle: saline with Tween-80) was 1 of 6.

For NC1=CC(=O)c2nc(-c3ccccc3N)ccc2C1=O, the survivor count (dose: 400.0 mg/kg/injection, schedule: Q04DX003 (ip), vehicle: Klucel (hydroxypropylcellulose) (HPC)) was 2 of 6.

O=C1CC(c2ccccc2)NN1 (stereo unspecified) was tested, and the survivor count [4] was 4 of 6.

With O=[N+]([O-])c1ccc(/C(=C/c2ccccc2)S(=O)(=O)C(Cl)(Cl)Cl)o1 the T/C (dose: 100.0 mg/kg/injection, schedule: Q01DX009 (ip), vehicle: suspension in saline) was 147 % of control and the survivor count (dose: 200.0 mg/kg/injection, schedule: Q01DX009 (ip), vehicle: suspension in saline) was 3 of 6.

In the case of O=C1C[CH]([Ge](=[O])[O][Ge](=[O])[CH]2CC(=O)NC(=O)N2)NC(=O)N1 (stereo unspecified), the T/C (dose: 60.0 mg/kg/injection, schedule: Q01DX005 (ip), vehicle: water) is reported as 133 % of control.

In the case of COc1ccc2c(c1)CCC1C2CCC2(C)/C(=N/O)C(Cl)C(O)C12 (stereo unspecified), the survivor count (dose: 100.0 mg/kg/injection, schedule: Q01DX001 (ip), vehicle: saline + alcohol) is reported as 0 of 6, the survivor count (dose: 200.0 mg/kg/injection, schedule: Q01DX001 (ip), vehicle: saline + alcohol) is reported as 0 of 6 and the survivor count (dose: 400.0 mg/kg/injection, schedule: Q01DX001 (ip), vehicle: saline + alcohol) is reported as 0 of 6.

O=[N+]([O-])c1ccc2c(c1)C(N1CCN(CCO)CC1)Cc1ccc(F)cc1S2 (stereo unspecified) was tested, and the survivor count (dose: 60.0 mg/kg/injection, schedule: Q01DX005 (ip), vehicle: saline with Tween-80) was 0 of 6, the survivor count (dose: 120.0 mg/kg/injection, schedule: Q01DX005 (ip), vehicle: saline with Tween-80) was 0 of 6 and the survivor count [5] was 0 of 6.

In the case of O=C1C2C3C=CC(C2C(=O)N1CCl)C1C2C(=O)N(CCl)C(=O)C2C31 (stereo unspecified), the T/C (dose: 400.0 mg/kg/injection, schedule: Q01DX009 (ip), vehicle: saline with Tween-80) is reported as 126 % of control.

C=C(C)C(=O)N(C)C(C)C(=O)OC1CC(=O)N(C)c2cc(cc(OC)c2Cl)C(OC)C(C)=C/C=C/C(OC)C2(O)CC(OC(=O)N2)C(C)C2OC12C (stereo unspecified) was tested, and the T/C (dose: 8.0 micrograms/kg/injection, schedule: Q01DX009 (ip), vehicle: saline) was 127 % of control, the T/C [6] was 145 % of control and the survivor count [6] was 5 of 6.

Cc1cccc(Oc2ccc(C(F)(F)F)cc2[N+](=O)[O-])c1C was tested, and the survivor count [4] was 6 of 6.

Cc1cccc(NCc2ccncc2)n1 was tested, and the survivor count [1] was 0 of 6 and the survivor count [2] was 0 of 6.

O=[N+]([O-])c1ccc(N2CCN(c3ccccc3)CC2)c2nonc12 was tested, and the survivor count (dose: 50.0 mg/kg/injection, schedule: Q01DX009 (ip), vehicle: suspension in saline) was 6 of 6.

In the case of O=C1c2ccccc2C(=O)c2c1cc1c(c2[N+](=O)[O-])OCO1, the T/C [5] is reported as 147 % of control.
